Source: patent publication US8562986B2, “Engineered anti-alpha V-integrin hybrid antibodies” (Merck Patent GmbH, priority 2007, dated 2013)

Test: Transient expression in PER.C6 (human Fc ELISA)

B1: 17E6-g2h(FN−>AQ): chimeric control: 17E6 variable regions with g2h(FN to AQ) constant region (antibody, V domains shown)
VH: QVQLQQSGAELAEPGASVKMSCKASGYTFSSFWMHWVKQRPGQGLEWIGYINPRSGYTECNEIFRDKATMTADTSSSTAYMQLSGLTSEDSAVYYCASFLGRGAMDYWGQGTSVTVSS
VL: DIQMTQTTSSLSASLGDRVIISCRASQDISNYLSWYQQKPDGTVKLLIFYTSKLHSGVPSRFSGSGSGTDYSLTISNLDQEDIATYFCQQGNTFPYTFGGGTKVEMR
Transient expression in PER.C6 by HuFc-ELISA, Day 7 (Day 7): 5425 ng/mL
Fc ELISA (transient transfections, replicate values of one cell): 4.9 µg/mL and 4.0 µg/mL

“And” between values parts separate entries of the source, which are not always exact repeats. Equal values may be shown once.
